According to paper PMC7773550:
Results are given in words; binding and its absence hold for the method and conditions named. In cells and extracts the contact can be indirect. Some entries that bind do so weakly or less than the wild type.

Protein sequences, listed by entry. Tags and fused reporters are not part of them. Lines headed by an entry give the natural chain unless they say otherwise; changes in a name come on top.
UniProt P40763: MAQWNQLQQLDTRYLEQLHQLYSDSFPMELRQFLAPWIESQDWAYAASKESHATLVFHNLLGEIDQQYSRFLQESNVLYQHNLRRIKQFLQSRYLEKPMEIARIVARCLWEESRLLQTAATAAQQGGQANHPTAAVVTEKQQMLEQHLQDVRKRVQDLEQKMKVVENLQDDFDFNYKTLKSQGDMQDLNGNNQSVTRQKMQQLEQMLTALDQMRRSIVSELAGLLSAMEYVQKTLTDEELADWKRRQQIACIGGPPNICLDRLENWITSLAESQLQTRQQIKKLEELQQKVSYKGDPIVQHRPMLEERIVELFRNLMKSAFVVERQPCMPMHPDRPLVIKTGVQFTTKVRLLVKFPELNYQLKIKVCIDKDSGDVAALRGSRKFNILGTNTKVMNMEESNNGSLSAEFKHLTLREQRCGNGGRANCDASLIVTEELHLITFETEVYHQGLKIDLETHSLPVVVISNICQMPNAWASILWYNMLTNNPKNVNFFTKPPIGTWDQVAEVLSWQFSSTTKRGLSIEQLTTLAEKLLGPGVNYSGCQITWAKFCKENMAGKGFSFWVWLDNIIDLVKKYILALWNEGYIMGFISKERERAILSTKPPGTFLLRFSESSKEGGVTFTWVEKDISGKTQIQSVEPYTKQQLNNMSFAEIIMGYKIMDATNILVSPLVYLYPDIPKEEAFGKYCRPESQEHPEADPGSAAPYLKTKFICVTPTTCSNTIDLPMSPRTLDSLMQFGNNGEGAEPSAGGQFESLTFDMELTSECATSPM
UniProt P49336: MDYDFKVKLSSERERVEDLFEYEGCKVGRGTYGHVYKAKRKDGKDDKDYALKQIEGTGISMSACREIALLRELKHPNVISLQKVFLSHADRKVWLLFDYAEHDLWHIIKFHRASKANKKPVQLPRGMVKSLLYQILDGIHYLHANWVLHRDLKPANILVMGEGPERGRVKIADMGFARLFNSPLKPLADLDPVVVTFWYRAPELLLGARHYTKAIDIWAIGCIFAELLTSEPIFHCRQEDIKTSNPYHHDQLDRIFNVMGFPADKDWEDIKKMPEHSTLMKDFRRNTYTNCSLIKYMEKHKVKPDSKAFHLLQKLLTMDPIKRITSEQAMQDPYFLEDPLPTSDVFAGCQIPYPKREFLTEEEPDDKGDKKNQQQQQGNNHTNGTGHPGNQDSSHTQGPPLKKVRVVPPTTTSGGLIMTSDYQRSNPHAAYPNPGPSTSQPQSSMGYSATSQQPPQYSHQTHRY
UniProt P50750: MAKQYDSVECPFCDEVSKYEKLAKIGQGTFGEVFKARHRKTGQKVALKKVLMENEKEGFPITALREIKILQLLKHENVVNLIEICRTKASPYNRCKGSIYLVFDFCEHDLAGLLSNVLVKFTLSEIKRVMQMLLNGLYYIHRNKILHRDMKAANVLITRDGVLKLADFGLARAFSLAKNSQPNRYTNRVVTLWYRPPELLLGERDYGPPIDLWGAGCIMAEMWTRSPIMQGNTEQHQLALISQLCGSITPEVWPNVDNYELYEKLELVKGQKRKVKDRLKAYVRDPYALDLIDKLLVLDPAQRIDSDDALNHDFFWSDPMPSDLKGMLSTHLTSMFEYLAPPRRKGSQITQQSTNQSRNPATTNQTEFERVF

How the values were obtained:
[1] = biological target: STAT3 (human (endogenous in primary CD4+ T cells)) (UniProt P40763); assay: proximity ligation; activated human primary CD4+ T cells, untreated (no HyIL-6, no inhibitor); fixed, methanol-permeabilised, stained with anti-STAT3 and anti-CDK8 or anti-CDK9; endogenous proteins
[2] = biological target: STAT3 (human (endogenous in primary CD4+ T cells)) (UniProt P40763); assay: proximity ligation; activated human primary CD4+ T cells stimulated with 20 nM HyIL-6 (time course, peak at 30 min), also with or with only 2 uM MSC2530818 or 2 uM flavopiridol; fixed, methanol-permeabilised, stained with anti-STAT3 and anti-CDK8 or anti-CDK9; endogenous proteins
[3] = biological target: STAT3 S727A-GFP (human) (UniProt P40763); assay: proximity ligation; STAT3 KnD Hut78 cells reconstituted with STAT3 WT-GFP or STAT3 S727A-GFP, unstimulated or stimulated with 20 nM HyIL-6 (time course); nuclear STAT3/CDK9 PLA signal read in GFP-positive cells
[4] = biological target: STAT3 WT-GFP (human) (UniProt P40763); assay: as above

binding [1]	binding [2]	binding [3]	binding [4]	Substance
binds weakly	binds			CDK8 (from UniProt P49336 1-464) (enzyme)
binds weakly	binds	binds	binds	CDK9 (from UniProt P50750 1-372) (enzyme)
